For 38 targets, log2 fold change results are on record in the supplement of paper PMC10849652.

By UniProt entry, the sequences of proteins in these tests, tags left out. Where a name states a change or a piece, a line headed by the entry shows the natural chain unless it says otherwise.
UniProt O60331: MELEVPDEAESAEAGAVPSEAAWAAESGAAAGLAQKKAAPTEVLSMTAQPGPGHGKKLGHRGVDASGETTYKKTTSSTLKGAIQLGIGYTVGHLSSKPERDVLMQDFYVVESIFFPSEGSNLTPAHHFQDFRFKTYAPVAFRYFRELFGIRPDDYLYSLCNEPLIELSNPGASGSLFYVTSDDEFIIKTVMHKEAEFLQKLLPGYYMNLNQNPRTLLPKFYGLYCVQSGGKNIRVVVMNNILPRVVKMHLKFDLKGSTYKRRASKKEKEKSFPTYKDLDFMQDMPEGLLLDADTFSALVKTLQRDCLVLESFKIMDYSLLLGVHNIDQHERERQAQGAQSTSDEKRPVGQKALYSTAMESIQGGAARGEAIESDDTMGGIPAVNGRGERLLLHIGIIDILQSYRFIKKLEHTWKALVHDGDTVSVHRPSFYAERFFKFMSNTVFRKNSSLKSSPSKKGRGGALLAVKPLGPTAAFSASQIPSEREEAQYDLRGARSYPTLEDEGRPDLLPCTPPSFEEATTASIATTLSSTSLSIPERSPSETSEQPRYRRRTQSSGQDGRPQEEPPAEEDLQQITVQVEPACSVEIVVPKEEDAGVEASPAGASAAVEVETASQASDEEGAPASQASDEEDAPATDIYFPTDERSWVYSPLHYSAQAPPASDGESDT
UniProt Q32M88: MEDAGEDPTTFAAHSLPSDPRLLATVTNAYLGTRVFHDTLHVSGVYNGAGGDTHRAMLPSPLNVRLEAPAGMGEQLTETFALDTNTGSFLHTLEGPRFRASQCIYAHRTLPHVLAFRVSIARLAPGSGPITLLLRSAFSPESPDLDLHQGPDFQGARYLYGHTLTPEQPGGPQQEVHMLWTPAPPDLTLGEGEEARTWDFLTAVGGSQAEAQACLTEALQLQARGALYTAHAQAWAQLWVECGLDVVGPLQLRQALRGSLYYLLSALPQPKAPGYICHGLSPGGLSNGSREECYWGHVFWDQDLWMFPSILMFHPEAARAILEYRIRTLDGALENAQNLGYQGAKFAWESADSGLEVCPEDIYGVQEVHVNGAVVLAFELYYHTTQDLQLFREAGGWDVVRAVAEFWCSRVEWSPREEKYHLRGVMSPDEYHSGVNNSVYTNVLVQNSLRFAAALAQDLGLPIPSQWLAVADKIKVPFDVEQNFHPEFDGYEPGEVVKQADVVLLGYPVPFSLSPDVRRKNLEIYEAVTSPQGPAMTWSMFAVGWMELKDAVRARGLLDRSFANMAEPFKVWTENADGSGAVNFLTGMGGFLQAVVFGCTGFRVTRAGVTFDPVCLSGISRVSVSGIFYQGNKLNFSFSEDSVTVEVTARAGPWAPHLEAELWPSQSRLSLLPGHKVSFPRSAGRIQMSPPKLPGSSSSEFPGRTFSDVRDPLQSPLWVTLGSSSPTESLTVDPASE
UniProt Q5H8A4: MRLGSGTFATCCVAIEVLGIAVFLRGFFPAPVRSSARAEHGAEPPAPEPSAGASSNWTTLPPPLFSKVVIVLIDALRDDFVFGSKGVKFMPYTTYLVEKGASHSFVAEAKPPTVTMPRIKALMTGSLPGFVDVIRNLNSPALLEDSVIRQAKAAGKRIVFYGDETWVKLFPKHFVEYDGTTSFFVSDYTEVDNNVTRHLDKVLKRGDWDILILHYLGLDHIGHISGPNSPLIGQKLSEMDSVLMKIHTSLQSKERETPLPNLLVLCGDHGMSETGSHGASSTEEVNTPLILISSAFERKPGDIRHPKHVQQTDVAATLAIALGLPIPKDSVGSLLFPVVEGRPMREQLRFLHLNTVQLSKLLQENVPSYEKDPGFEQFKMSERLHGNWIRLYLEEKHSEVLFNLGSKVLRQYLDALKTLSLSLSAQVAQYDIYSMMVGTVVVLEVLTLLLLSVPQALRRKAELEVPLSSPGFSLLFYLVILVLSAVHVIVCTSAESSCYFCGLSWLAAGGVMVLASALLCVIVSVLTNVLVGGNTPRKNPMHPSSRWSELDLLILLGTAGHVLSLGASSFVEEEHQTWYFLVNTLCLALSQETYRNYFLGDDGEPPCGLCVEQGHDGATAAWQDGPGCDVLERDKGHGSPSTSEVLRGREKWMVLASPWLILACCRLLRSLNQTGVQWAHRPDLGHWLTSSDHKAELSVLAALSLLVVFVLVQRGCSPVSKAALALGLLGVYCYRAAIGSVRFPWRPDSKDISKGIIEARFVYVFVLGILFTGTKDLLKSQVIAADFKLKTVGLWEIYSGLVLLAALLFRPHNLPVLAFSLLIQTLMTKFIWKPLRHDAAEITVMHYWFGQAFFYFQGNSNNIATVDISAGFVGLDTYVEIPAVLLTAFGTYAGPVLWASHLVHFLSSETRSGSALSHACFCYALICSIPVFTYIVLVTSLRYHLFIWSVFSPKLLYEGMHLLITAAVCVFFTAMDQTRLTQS
UniProt O15067: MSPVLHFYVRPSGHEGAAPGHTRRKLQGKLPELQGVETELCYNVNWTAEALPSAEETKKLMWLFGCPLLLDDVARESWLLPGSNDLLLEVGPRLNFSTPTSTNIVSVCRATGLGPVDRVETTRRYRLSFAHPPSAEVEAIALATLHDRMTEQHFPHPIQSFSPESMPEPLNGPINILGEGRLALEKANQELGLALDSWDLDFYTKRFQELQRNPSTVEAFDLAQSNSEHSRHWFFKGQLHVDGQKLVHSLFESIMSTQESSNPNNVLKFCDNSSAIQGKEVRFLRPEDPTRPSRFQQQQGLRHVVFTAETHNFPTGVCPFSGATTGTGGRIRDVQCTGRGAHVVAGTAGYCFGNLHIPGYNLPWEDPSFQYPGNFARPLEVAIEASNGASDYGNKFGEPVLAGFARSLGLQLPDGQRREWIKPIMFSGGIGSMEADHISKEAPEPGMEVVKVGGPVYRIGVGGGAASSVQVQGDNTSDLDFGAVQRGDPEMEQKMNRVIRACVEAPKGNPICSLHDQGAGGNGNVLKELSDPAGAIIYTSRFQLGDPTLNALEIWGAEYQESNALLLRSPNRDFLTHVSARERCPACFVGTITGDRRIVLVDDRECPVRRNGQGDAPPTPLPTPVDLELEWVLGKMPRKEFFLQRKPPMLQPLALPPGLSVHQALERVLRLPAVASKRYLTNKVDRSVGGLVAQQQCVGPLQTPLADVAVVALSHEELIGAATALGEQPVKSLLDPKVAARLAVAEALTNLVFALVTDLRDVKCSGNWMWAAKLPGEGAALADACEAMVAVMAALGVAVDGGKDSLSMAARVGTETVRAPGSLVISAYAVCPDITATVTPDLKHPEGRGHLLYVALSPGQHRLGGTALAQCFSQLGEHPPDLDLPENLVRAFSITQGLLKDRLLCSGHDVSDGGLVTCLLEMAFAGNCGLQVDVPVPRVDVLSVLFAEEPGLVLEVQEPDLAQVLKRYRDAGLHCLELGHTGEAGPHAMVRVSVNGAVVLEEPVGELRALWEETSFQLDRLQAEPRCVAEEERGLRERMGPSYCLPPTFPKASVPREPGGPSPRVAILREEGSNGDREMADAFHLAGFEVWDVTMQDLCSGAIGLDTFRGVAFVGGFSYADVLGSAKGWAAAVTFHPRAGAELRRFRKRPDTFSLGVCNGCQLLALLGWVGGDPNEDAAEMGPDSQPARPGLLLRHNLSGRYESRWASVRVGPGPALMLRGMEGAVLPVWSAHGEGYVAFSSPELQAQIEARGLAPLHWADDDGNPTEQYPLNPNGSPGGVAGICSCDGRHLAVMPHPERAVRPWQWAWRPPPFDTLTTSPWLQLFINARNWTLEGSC
UniProt P19174: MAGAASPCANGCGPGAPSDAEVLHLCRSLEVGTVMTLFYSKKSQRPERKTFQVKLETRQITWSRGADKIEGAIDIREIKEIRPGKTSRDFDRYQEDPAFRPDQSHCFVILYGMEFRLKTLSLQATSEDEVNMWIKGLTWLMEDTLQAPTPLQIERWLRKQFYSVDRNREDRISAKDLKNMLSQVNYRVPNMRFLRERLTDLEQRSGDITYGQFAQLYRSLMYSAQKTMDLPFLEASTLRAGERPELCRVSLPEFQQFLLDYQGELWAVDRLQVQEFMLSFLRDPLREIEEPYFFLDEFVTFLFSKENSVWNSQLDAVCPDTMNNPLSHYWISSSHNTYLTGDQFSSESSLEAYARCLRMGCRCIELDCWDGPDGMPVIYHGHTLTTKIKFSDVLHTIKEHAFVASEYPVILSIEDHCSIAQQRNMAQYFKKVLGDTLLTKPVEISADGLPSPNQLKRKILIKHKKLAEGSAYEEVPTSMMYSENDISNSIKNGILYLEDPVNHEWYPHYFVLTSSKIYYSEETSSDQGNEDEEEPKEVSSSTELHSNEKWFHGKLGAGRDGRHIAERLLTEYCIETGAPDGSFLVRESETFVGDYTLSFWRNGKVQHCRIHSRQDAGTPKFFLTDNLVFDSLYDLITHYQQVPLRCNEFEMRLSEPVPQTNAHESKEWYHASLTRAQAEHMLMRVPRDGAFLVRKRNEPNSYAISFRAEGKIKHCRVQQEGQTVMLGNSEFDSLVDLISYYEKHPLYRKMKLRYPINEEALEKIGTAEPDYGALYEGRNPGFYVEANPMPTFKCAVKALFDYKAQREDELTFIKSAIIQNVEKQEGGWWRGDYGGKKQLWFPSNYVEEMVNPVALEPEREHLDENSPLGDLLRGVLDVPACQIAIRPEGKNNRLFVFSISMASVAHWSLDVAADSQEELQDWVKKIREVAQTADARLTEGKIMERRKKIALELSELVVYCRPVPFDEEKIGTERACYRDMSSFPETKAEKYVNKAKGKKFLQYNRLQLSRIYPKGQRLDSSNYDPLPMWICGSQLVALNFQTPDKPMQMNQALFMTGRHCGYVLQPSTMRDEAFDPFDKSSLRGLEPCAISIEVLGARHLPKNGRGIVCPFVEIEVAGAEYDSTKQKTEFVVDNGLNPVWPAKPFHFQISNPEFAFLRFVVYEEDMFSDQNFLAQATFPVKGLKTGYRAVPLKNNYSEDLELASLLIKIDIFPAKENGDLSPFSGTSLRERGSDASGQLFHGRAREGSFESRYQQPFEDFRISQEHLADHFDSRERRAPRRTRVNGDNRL
UniProt O00625: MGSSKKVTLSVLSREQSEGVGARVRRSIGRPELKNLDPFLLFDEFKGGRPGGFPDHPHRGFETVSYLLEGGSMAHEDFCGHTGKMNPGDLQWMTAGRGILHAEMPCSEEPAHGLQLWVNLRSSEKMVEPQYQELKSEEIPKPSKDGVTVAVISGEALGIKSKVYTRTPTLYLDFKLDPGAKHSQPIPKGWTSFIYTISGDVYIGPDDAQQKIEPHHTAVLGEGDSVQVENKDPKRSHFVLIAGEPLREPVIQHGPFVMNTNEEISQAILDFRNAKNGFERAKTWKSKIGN
UniProt P46019: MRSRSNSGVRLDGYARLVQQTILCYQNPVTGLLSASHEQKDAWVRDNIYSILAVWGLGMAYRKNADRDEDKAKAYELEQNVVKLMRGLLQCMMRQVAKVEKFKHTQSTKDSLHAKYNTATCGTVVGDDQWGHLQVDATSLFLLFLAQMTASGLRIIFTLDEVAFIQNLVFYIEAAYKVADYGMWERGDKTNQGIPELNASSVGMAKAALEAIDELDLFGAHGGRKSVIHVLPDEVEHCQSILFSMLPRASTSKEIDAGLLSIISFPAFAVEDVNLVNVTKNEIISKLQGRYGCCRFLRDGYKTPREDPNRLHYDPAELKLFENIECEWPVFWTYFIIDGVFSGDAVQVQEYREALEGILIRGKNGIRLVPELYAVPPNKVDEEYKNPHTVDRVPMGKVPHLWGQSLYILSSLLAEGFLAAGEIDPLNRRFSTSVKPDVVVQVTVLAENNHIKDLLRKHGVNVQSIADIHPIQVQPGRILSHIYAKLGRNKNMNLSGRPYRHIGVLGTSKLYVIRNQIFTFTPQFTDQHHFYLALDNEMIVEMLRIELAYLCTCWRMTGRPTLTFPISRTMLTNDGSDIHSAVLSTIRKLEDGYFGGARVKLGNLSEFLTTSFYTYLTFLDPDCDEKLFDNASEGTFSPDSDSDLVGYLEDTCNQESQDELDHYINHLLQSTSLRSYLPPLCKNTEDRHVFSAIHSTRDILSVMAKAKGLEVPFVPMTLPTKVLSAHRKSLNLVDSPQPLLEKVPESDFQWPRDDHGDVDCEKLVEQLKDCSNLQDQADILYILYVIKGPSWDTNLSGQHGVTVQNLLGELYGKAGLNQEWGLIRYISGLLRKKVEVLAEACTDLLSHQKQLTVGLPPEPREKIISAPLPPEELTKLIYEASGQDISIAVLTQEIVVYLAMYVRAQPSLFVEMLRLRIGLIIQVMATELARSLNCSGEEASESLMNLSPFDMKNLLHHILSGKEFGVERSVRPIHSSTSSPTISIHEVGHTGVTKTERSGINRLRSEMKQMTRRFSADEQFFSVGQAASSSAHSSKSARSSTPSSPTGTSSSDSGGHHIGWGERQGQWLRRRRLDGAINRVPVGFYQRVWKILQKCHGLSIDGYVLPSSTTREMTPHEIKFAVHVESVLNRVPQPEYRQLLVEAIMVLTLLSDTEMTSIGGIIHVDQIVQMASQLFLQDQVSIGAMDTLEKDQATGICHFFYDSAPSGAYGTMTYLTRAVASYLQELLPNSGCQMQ

Some of the results follow.

Compound in the first experiment: CNC(=O)C1=CC=CC=C1NC2=NC(=NC=C2Cl)NC3=C(C=C(C=C3)N4CCOCC4)OC
The experiment can be described thus: log2 fold change, soluble protein after heating vs DMSO (PISA); higher = thermal stabilisation; K562 cells, 10 uM, 30 min; active = over 0.2 and 3.5 SD of the protein, either way, in both replicates (recomputed). The essentials: (§1)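 Values are thermal stability changes relative to control samples and are taken from duplicates. They are stated as log2 fold changes. Before quantification by TMTpro 16plex LC-MS/MS with equalised channel sums, K562 cells at 2×10^6 cells/mL were treated with 10 μM compound for 30 min, heated in aliquots for 3 min across 48°C-58°C, pooled, extracted in PBS with 0.5% NP-40 at 4°C, and centrifuged at 21,000xg for 90 min to give the soluble supernatant.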
PLBD1 (UniProt Q6P4A8): the log2 fold change was inactive: 0.054.

For the target PIP5K1C isoform 3 (UniProt O60331), the log2 fold change was inactive: 0.011.

On to PLBD2 (UniProt Q8NHP8), for which the log2 fold change is inactive: 0.029.

With PFDN1 (UniProt O60925), the log2 fold change is inactive: -0.001.

PHKG2 (UniProt P15735): the log2 fold change was inactive: 0.167.

Turning to PIP4P1 isoform 2 (UniProt Q86T03), the log2 fold change was inactive: 0.

On to PGM3 isoform 4 (UniProt O95394), for which the log2 fold change is inactive: -0.011.

On to PGGHG (UniProt Q32M88), for which the log2 fold change was inactive: -0.029.

As for PIK3CB (UniProt P42338), the log2 fold change is inactive: -0.011.

Turning to PITRM1 isoform 2 (UniProt Q5JRX3), the log2 fold change is inactive: -0.027.

In the case of PKN1 isoform 2 (UniProt Q16512), the log2 fold change is inactive: -0.088.

In the case of PIGG (UniProt Q5H8A4), the log2 fold change was inactive: 0.013.

Take PFAS (UniProt O15067): the log2 fold change was active: -0.324.

For the target PHAX (UniProt Q9H814), the log2 fold change was inactive: -0.028.

In the case of PIGW (UniProt Q7Z7B1), the log2 fold change is inactive: -0.071.

As for PLCB3 (UniProt Q01970), the log2 fold change was inactive: 0.023.

Regarding PIP4P2 (UniProt Q8N4L2), the log2 fold change was inactive: -0.007.

Compound in a further experiment: CNC(=O)c1ccc(Nc2ncc(C(F)(F)F)c(NCc3nccnc3N(C)S(C)(=O)=O)n2)cc1 [defactinib]
The experiment is described as above. The procedure, abridged: as §1
With PLD3 (UniProt Q8IV08), the log2 fold change was inactive: -0.005.

As for PHF5A (UniProt Q7RTV0), the log2 fold change was inactive: 0.141.

On to PLA2G15 (UniProt Q8NCC3), for which the log2 fold change was inactive: 0.012.

Turning to PIGT (UniProt Q969N2), the log2 fold change was inactive: 0.012.

For the target PISD (UniProt Q9UG56), the log2 fold change is inactive: -0.054.

On to PIK3C3 (UniProt Q8NEB9), for which the log2 fold change is inactive: -0.012.

Consider PHF19 isoform 2 (UniProt Q5T6S3), for which the log2 fold change was inactive: -0.09.

With PKM (UniProt P14618), the log2 fold change was inactive: -0.01.

With PIP4K2C (UniProt Q8TBX8), the log2 fold change is inactive: 0.527.

As for PEX5 isoform 4 (UniProt P50542), the log2 fold change is inactive: 0.006.

As to PIK3R1 (UniProt P27986), the log2 fold change is inactive: -0.06.

On to PEX7 (UniProt O00628), for which the log2 fold change was inactive: -0.005.

As for PIP4K2A (UniProt P48426), the log2 fold change was inactive: 0.166.

PJA2 (UniProt O43164): the log2 fold change was inactive: -0.003.

PIKFYVE (UniProt Q9Y2I7): the log2 fold change is inactive: -0.033.

For the target PI4K2B (UniProt Q8TCG2), the log2 fold change was inactive: 0.003.

Consider PLCG1 isoform 2 (UniProt P19174), for which the log2 fold change is inactive: -0.128.

Consider PGGT1B (UniProt P53609), for which the log2 fold change was inactive: 0.001.

In the case of PIR (UniProt O00625), the log2 fold change was inactive: -0.09.

Turning to PHKA2 (UniProt P46019), the log2 fold change is inactive: 0.012.

Regarding PIP4K2B (UniProt P78356), the log2 fold change was inactive: 0.176.

With PLBD1 (UniProt Q6P4A8), the log2 fold change is inactive: 0.023.

PLBD2 (UniProt Q8NHP8): the log2 fold change is inactive: -0.025.

On to PFDN1 (UniProt O60925), for which the log2 fold change was inactive: -0.066.

On to PHKG2 (UniProt P15735), for which the log2 fold change was inactive: 0.026.

For PIP4P1 isoform 2 (UniProt Q86T03), the log2 fold change is inactive: 0.039.

As to PGM3 isoform 4 (UniProt O95394), the log2 fold change is inactive: -0.019.

For PGGHG (UniProt Q32M88), the log2 fold change is inactive: 0.127.

On to PIK3CB (UniProt P42338), for which the log2 fold change was inactive: -0.04.

Regarding PITRM1 isoform 2 (UniProt Q5JRX3), the log2 fold change is inactive: -0.034.

PKN1 isoform 2 (UniProt Q16512): the log2 fold change is inactive: -0.121.

As for PIGG (UniProt Q5H8A4), the log2 fold change was inactive: 0.175.

In the case of PFAS (UniProt O15067), the log2 fold change is inactive: -0.029.

Regarding PHAX (UniProt Q9H814), the log2 fold change is inactive: -0.138.

With PIGW (UniProt Q7Z7B1), the log2 fold change is inactive: -0.053.

Consider PLCB3 (UniProt Q01970), for which the log2 fold change is inactive: -0.074.

On to PIP4P2 (UniProt Q8N4L2), for which the log2 fold change was inactive: 0.004.
